The list shows a part of the results. Small differences around the control level are noise.

Protein sequences, listed by entry. Tags and fused reporters are not part of them. Lines headed by an entry give the natural chain unless they say otherwise; changes in a name come on top.
UniProt P50120: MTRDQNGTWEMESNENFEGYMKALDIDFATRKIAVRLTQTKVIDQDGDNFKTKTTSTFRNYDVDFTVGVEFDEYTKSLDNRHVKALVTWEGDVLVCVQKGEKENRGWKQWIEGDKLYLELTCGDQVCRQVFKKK
UniProt P51795: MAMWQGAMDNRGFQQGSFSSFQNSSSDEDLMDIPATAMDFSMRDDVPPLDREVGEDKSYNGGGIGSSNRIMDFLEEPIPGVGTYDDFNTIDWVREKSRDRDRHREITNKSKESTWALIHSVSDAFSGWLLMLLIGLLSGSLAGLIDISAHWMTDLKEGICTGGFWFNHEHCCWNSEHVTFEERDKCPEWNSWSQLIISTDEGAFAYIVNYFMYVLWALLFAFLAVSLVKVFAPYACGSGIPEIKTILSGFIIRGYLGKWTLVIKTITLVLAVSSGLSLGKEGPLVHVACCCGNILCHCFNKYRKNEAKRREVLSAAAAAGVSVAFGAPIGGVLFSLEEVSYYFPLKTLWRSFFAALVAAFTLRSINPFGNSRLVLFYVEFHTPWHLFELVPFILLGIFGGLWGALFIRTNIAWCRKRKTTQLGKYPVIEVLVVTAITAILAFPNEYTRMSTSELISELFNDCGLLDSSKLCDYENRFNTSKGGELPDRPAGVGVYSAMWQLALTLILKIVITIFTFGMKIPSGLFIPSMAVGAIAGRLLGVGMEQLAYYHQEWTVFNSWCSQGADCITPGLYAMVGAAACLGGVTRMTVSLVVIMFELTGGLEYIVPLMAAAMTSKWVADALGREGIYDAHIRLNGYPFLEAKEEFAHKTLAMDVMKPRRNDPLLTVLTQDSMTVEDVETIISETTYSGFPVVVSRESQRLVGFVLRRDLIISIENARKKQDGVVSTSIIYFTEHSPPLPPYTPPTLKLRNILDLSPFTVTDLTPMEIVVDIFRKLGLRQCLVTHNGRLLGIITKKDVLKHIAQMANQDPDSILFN
UniProt P50336: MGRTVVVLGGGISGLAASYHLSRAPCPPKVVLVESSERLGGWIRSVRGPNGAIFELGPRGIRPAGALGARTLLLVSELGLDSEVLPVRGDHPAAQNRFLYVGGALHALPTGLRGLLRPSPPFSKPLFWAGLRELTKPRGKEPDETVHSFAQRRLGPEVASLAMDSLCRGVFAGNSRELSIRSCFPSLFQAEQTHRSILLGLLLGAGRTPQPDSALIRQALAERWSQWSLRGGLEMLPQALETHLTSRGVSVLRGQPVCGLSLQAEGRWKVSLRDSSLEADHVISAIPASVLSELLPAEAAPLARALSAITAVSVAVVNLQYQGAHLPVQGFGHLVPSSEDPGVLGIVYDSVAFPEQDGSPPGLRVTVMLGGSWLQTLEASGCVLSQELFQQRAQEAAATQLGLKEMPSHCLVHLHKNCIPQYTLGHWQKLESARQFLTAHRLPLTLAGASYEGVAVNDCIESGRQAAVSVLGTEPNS
UniProt P53602: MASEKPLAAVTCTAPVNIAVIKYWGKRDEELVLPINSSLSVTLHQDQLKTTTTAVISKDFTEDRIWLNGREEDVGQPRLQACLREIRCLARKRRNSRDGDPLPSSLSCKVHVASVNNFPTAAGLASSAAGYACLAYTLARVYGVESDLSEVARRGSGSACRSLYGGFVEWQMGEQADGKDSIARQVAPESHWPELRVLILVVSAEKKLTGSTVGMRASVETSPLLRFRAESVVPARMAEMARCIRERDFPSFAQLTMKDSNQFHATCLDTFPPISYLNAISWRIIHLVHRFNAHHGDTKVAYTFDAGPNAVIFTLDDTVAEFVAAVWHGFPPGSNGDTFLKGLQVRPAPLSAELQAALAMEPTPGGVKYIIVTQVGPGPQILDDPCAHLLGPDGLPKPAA
UniProt P50502: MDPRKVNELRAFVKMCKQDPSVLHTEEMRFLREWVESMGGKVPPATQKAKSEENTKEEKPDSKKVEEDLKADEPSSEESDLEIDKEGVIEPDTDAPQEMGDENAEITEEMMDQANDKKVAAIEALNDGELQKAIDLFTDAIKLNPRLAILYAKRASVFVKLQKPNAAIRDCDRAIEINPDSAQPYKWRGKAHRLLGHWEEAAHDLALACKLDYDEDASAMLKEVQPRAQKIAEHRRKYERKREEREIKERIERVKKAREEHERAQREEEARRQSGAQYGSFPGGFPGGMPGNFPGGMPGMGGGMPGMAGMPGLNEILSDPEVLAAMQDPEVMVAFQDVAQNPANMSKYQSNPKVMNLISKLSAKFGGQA
UniProt P50226: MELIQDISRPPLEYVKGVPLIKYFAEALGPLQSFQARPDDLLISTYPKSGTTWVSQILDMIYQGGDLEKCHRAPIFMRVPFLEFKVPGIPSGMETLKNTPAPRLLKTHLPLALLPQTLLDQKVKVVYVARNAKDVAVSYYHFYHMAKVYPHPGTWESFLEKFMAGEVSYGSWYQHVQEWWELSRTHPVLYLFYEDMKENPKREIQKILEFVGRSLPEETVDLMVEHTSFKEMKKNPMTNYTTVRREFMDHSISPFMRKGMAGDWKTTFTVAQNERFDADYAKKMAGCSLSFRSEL
UniProt P51178: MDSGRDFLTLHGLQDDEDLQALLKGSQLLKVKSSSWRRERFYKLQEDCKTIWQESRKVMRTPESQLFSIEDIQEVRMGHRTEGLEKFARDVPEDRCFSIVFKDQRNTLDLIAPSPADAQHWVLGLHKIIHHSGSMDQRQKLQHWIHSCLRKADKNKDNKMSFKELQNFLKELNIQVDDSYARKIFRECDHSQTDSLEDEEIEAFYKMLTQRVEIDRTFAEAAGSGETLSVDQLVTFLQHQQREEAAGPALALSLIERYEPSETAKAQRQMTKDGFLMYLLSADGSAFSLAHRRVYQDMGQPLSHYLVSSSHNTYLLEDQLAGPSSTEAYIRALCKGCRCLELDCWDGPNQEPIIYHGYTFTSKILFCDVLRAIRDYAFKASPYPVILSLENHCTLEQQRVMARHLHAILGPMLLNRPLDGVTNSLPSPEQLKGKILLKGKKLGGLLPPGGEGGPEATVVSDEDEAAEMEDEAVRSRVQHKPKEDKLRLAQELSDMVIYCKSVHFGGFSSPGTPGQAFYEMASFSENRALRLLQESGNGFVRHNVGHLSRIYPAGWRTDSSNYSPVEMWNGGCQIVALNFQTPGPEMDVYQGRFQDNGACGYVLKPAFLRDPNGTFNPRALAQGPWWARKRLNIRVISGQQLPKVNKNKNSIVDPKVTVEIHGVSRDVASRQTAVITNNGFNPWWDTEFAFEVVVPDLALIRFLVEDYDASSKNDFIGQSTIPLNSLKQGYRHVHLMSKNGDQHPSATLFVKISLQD
UniProt P49755: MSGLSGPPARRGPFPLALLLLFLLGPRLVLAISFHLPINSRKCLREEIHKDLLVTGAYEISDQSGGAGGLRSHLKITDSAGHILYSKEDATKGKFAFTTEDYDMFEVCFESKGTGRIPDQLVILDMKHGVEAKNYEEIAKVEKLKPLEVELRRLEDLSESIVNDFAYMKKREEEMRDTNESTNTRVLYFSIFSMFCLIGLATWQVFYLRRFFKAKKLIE
UniProt P46527, whole entry: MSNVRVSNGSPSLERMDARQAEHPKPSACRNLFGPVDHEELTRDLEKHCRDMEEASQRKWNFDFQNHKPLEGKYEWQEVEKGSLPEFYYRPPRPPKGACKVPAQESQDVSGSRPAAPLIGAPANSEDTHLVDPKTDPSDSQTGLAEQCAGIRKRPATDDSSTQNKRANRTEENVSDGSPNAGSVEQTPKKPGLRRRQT
UniProt P49848, whole entry: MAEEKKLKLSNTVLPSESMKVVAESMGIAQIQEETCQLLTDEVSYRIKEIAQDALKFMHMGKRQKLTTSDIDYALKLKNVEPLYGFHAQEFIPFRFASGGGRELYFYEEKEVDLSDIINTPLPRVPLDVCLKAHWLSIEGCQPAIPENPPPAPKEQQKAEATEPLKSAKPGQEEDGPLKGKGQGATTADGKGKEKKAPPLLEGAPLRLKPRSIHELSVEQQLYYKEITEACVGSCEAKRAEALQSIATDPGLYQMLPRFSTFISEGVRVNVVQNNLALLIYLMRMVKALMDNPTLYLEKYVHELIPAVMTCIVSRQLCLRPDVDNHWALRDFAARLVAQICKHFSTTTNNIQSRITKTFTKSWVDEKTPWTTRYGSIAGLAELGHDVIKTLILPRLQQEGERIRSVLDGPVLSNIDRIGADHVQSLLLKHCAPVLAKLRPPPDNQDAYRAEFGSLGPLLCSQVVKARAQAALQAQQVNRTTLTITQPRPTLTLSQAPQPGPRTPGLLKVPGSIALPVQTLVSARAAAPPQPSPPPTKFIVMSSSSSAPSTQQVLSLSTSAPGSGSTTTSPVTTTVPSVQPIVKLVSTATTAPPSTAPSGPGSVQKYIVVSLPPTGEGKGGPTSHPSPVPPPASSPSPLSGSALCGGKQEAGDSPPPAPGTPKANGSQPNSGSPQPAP
UniProt P51788: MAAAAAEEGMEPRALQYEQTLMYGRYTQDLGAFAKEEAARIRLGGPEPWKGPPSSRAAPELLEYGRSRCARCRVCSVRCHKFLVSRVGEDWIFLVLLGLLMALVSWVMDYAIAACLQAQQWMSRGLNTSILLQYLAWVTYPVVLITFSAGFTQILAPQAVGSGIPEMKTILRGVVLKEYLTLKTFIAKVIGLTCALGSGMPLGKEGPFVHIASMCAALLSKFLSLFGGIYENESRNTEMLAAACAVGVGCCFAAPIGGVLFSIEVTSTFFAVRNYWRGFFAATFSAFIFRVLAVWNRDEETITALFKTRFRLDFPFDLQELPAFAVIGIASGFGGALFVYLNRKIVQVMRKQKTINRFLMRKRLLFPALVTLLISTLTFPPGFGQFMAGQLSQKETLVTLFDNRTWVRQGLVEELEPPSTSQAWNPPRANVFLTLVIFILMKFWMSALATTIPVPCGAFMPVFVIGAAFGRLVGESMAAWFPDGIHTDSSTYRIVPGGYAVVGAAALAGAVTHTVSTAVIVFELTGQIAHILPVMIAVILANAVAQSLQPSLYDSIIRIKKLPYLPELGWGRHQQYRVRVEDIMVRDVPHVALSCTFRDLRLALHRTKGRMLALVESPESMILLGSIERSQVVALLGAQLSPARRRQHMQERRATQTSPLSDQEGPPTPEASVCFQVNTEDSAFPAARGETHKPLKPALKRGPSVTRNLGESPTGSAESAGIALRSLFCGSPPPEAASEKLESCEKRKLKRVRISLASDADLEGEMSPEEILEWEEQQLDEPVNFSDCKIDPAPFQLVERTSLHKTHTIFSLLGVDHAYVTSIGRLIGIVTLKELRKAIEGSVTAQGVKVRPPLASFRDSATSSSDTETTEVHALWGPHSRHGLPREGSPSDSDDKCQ
UniProt P54687: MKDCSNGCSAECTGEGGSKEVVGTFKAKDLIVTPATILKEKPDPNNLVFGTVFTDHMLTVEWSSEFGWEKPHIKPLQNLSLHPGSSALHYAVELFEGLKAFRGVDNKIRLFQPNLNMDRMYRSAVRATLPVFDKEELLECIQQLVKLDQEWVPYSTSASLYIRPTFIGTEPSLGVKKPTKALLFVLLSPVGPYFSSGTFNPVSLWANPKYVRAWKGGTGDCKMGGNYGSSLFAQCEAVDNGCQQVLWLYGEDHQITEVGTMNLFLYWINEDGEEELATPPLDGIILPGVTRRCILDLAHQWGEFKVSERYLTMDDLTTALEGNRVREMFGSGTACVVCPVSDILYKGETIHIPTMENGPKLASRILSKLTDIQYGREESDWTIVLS
UniProt P49023, whole entry: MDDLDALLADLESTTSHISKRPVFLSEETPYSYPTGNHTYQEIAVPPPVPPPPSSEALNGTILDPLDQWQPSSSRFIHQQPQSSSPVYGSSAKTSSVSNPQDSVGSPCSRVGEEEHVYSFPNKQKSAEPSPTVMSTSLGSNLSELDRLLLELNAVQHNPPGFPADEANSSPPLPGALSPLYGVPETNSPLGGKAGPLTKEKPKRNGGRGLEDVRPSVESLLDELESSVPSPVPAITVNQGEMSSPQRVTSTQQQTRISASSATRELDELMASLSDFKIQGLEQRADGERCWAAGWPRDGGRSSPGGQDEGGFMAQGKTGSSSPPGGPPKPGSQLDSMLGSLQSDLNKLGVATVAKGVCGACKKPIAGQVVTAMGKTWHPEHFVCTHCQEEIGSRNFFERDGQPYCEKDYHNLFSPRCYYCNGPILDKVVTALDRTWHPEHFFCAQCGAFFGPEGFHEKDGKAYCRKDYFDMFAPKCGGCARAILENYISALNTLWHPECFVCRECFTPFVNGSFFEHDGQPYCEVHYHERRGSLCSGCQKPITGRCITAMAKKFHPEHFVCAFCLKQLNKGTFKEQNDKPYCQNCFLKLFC
UniProt P52655, whole entry: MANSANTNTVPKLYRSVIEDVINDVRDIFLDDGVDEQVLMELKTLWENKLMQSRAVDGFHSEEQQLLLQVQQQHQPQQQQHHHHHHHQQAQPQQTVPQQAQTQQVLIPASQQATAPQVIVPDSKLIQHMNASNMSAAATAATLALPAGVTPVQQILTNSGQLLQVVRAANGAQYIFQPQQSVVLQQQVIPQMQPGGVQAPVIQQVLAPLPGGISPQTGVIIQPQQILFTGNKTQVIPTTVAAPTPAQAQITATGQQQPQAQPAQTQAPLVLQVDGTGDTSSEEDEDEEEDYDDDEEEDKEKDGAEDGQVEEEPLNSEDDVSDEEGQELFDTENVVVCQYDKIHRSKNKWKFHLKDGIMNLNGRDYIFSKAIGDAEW

Compound in the experiment: CN[C@@H]1C[C@H]2O[C@@](C)([C@@H]1OC)n1c3ccccc3c3c4c(c5c6ccccc6n2c5c31)C(=O)NC4 [staurosporine]
In words: log2 fold change of tryptic peptide abundance, ligand vs vehicle (limited proteolysis) (log2 ratio); higher = more trypsin-susceptible (destabilized). Conditions: ligand concentration: 20 uM; sample: K562 cleared lysate; digestion: 4 min, 22 C (HT-PELSA RT4min, Orbitrap Astral).
“NASP (peptide sequence: VESLDVDSEAKK, peptide start residue: 34) (UniProt P49321)”: the log2 fold change was -0.239. Turning to “HIRA (peptide sequence: GLTWDPVGK, peptide start residue: 179) (UniProt P54198)”, the log2 fold change stood at 0.354. Take “UniProt P50120 (peptide sequence: KIAVRLTQTK, peptide start residue: 32)”: the log2 fold change was determined as 0.245. As to “CLCN5 (peptide sequence: QCLVTHNGR, peptide start residue: 782) (UniProt P51795)”, the log2 fold change stood at 0.576. With “DUSP3 (peptide sequence: AADFIDQALAQK, peptide start residue: 105) (UniProt P51452)” the figure was 0.112; with “RABGGTB (peptide sequence: GTPQKDVIIK, peptide start residue: 2) (UniProt P53611)”, 0.253; with “STAT5B (peptide sequence: ATQLLEGLVQELQK, peptide start residue: 57) (UniProt P51692)”, 0.11. The result for “MTHFS (peptide sequence: LRAMSAEER, peptide start residue: 21) (UniProt P49914)” reads 0.541; that for “PPOX (peptide sequence: TPQPDSALIR, peptide start residue: 208) (UniProt P50336)”, 0.153; that for “MVD (peptide sequence: QVAPESHWPELR, peptide start residue: 185) (UniProt P53602)”, 0.448.

With “ST13 (peptide sequence: FLREWVESMGGKVPPATQK, peptide start residue: 30) (UniProt P50502)”, the log2 fold change came to 0.354. For “PSMB2 (peptide sequence: FILNLPTFSVR, peptide start residue: 171) (UniProt P49721)”, the log2 fold change is -0.143. The result for “CAPZA1 (peptide sequence: FITHAPPGEFNEVFNDVR, peptide start residue: 20) (UniProt P52907)” reads -0.641; that for “RAD23A (peptide sequence: ERVVAALR, peptide start residue: 178) (UniProt P54725)”, -0.188. “UniProt P50226 (peptide sequence: SLPEETVDLMVEHTSFK, peptide start residue: 214)”: the log2 fold change was -0.183. The result for “PAPOLA (peptide sequence: YKHYIVLLASAPTEK, peptide start residue: 371) (UniProt P51003)” reads -0.326; that for “UniProt P48047 (peptide sequence: LVRPPVQVYGIEGR, peptide start residue: 27)”, 0.344. The result for “PLCD1 (peptide sequence: LQHWIHSCLR, peptide start residue: 141) (UniProt P51178)” reads 0.201. On to “UniProt P52737 (peptide sequence: AFTCITSVR, peptide start residue: 232)”, for which the log2 fold change is -0.344.

For “TMED10 (peptide sequence: IPDQLVILDMK, peptide start residue: 117) (UniProt P49755)”, the log2 fold change is -0.0757. With “CCT5 (peptide sequence: GIHPIRIADGYEQAAR, peptide start residue: 127) (UniProt P48643)” the figure was 0.564; with “CDKN1B (peptide sequence: TDPSDSQTGLAEQCAGIR, peptide start residue: 135) (UniProt P46527)”, -0.155.

Regarding “HNMT (peptide sequence: AELGKDLQEPEFSAK, peptide start residue: 260) (UniProt P50135)”, the log2 fold change amounted to 0.273. The result for “UniProt P51814 (peptide sequence: QENQNNLLSHVK, peptide start residue: 190)” reads 0.514; that for “UniProt P46379 (peptide sequence: MATHTLITGLEEYVR, peptide start residue: 806)”, 0.229. As to “STAT2 (peptide sequence: CSQDPESLLLQHNLRK, peptide start residue: 74) (UniProt P52630)”, the log2 fold change was found to be 0.518. In the case of “TAF6 (peptide sequence: LSNTVLPSESMK, peptide start residue: 9) (UniProt P49848)”, the log2 fold change came out at 0.239. For the target “METAP2 (peptide sequence: NFDVGHVPIRLPR, peptide start residue: 386) (UniProt P50579)”, the log2 fold change was 0.162. Regarding “CLCN2 (peptide sequence: AAAAAEEGMEPR, peptide start residue: 2) (UniProt P51788)”, the log2 fold change is 0.139. Turning to “BCAT1 (peptide sequence: CILDLAHQWGEFK, peptide start residue: 293) (UniProt P54687)”, the log2 fold change is -0.4. The result for “NEDD4 (peptide sequence: LLQFVTGTSR, peptide start residue: 898) (UniProt P46934)” reads -0.356. Turning to “PXN (peptide sequence: ELDELMASLSDFK, peptide start residue: 265) (UniProt P49023)”, the log2 fold change was -0.456. The result for “CTCF (peptide sequence: HADNCAGPDGVEGENGGETKK, peptide start residue: 573) (UniProt P49711)” reads -0.423. With “GTF2A1 (peptide sequence: SVIEDVINDVR, peptide start residue: 16) (UniProt P52655)” the figure was -0.314; with “UQCRFS1 (peptide sequence: EIEQEAAVELSQLR, peptide start residue: 183) (UniProt P47985)”, 0.138.

These data come from the supplement of paper PMC12819154, “High-throughput peptide-centric local stability assay extends protein–ligand identification to membrane proteins, tissues and bacteria” (Nature Structural & Molecular Biology, 2025).
